Here are results for two substances from paper PMC6009676.

By UniProt entry, the sequences of proteins in these tests, tags left out. Where a name states a change or a piece, a line headed by the entry shows the natural chain unless it says otherwise. Chains listed by the source or under a name are the forms on record and can include a tag or linker. Residues count along the entry.
UniProt O14744: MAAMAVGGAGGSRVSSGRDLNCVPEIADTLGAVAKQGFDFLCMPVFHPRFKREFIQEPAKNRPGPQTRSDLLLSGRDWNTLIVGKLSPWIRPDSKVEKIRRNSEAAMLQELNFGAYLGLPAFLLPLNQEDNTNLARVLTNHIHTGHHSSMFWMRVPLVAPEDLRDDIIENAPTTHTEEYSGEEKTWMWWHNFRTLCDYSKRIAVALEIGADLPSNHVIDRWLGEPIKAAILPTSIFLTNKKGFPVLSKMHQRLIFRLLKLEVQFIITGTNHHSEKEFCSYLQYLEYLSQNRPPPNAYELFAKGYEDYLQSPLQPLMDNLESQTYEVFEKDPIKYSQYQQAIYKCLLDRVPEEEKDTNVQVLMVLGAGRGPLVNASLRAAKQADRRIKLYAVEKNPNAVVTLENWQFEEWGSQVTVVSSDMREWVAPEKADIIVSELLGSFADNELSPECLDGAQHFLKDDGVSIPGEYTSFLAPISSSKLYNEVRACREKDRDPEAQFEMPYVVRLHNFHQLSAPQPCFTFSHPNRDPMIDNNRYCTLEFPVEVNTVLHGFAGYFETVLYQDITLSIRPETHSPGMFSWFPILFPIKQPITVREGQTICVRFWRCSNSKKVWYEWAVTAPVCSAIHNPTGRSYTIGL
Flag-tagged N-terminal domain of PRMT5 (1-293 aa): residues 1-293 of O14744
Flag-tagged C-terminal domain of PRMT5 (294-637 aa): residues 294-637 of O14744
UniProt Q9NUW8: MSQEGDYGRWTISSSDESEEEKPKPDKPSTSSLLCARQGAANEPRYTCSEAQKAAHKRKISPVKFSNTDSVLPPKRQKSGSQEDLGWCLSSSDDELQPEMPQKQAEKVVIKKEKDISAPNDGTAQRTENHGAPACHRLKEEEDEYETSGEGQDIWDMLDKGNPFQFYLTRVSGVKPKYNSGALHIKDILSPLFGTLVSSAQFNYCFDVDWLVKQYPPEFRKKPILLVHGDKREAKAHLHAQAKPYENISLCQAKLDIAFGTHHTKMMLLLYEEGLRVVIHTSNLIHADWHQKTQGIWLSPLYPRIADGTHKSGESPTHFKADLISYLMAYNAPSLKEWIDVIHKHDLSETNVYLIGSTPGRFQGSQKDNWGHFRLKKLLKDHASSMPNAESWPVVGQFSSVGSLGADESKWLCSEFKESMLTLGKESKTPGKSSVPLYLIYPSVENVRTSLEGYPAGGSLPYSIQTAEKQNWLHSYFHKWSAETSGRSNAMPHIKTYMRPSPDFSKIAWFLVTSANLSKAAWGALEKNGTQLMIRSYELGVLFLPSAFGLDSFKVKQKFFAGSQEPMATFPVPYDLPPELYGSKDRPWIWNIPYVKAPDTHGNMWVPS
GFP-tagged N-terminal domain of TDP1 (1-185 aa): residues 1-185 of Q9NUW8
GFP-tagged C-terminal (catalytic) domain of TDP1 (185-608 aa): residues 185-608 of Q9NUW8

Test [1] addresses FLAG-PRMT5 full length (1-637 aa) (human) (UniProt O14744). As to the kind of experiment: co-IP; FLAG-tagged bait (FLAG-PRMT5 constructs or FLAG-TDP1 variants) expressed in HCT116, immunoprecipitated with anti-FLAG antibody, cells with or without CPT (5 uM, 3 h); lysis buffer 50 mM Tris-HCl pH 7.4, 300 mM NaCl, 0.4% NP40; overnight at 4°C; immunoblot of the endogenous partner.
Test [2] deals with Flag-tagged C-terminal domain of PRMT5 (294-637 aa) (human) (UniProt O14744). The description is as above.
In test [3] the target is Flag-tagged N-terminal domain of PRMT5 (1-293 aa) (human) (UniProt O14744). The description is as above.
Test [4] concerns the target GFP-tagged full-length human TDP1 (GFP-TDP1^WT) (human) (UniProt Q9NUW8). As to the kind of experiment: co-IP; GFP-TDP1 expressed in HCT116, cell lysates pretreated with benzonase nuclease prior to anti-GFP co-IP; immunoblot with anti-PRMT5.
The target in test [5] is Tyrosyl-DNA phosphodiesterase 1 (endogenous TDP1) (human (endogenous in HCT116)) (UniProt Q9NUW8). Kind of test: co-IP; endogenous TDP1 immunoprecipitated with anti-TDP1 antibody from HCT116 lysate, cells with or without CPT (5 uM, 3 h); lysis buffer 50 mM Tris-HCl pH 7.4, 300 mM NaCl, 0.4% NP40, 10 mM MgCl2, 0.5 mM DTT; overnight at 4°C; immunoblot. In general terms: Immunoblotting shows a protein as a band on a membrane.

The target in test [6] is GFP-TDP1^KK (R361K, R586K methylation mutant) (human) (UniProt Q9NUW8). As to the kind of experiment: co-IP; GFP-TDP1 variants expressed in HCT116, immunoprecipitated with anti-GFP antibody, cells with or without CPT (5 uM, 3 h), control siRNA where siRNA was used; lysis buffer 50 mM Tris-HCl pH 7.4, 300 mM NaCl, 0.4% NP40; overnight at 4°C; immunoblot of the endogenous partner.

For test [7], the target named is GFP-tagged C-terminal (catalytic) domain of TDP1 (185-608 aa) (human) (UniProt Q9NUW8). The description is as above.
In test [8] the target is GFP-tagged N-terminal domain of TDP1 (1-185 aa) (human) (UniProt Q9NUW8). The description is as above.
The target in test [9] is GFP-tagged full-length human TDP1 (GFP-TDP1^WT) (human) (UniProt Q9NUW8). The test is described as above.
For test [10], the target named is Human flag-tagged full-length TDP1 (FLAG-TDP1^WT) (human) (UniProt Q9NUW8). Kind of test: co-IP; FLAG-tagged bait (FLAG-PRMT5 constructs or FLAG-TDP1 variants) expressed in HCT116, immunoprecipitated with anti-FLAG antibody, cells with or without CPT (5 uM, 3 h); lysis buffer 50 mM Tris-HCl pH 7.4, 300 mM NaCl, 0.4% NP40; overnight at 4°C; immunoblot of the endogenous partner.

These are yes or no findings as the source states them, for the method shown. In cells and extracts the contact can be indirect. Some entries that bind do so weakly or less than the wild type.

Consider “Tyrosyl-DNA phosphodiesterase 1 (endogenous TDP1) (from UniProt Q9NUW8 1-608)”, for which the values for the binding result in [1], in test [2] and in test [3] were “binds”, “binds weakly” and “binds”, respectively.

Turning to “Protein arginine methyltransferase PRMT5 (endogenous) (from UniProt O14744 1-637)”, the binding entry was “binds” in test [4]; “binds” in [5]; “binds” in test [6]; “binds weakly” in test [7]; “binds” in test [8]; “binds” in test [9]. Also, the binding entry in [10] is on record as “binds”.
